Results reported in the supplement of paper PMC5949888.
Most values lie at the floor of the assay. Slopes are relative: functional sequences can read slightly below zero.

system: Saccharomyces cerevisiae PS128 hsf1 delta, HSF1(1-493) fusion; experiment: growth estimate (transactivation domain function in HSF1 fusion, heat-shock survival) (a.u. (slope of normalised read count over time)); higher = stronger growth at 37°C, i.e. more transactivation activity; conditions: library: random library

| Substance | growth estimate |
| --- | --- |
| SAGSGAYGTVGSQGSYILTV | < -0.25 |
| SAGSRRAVARINPALDVGGV | < -0.25 |
| SAHLGSLPTLARSASLLAVR | < -0.25 |
| SAHSACGLGRLVGQVYAYPY | < -0.25 |
| SAIACDFLQRRGLHFLLSVA | < -0.25 |
| SAIFVFSSTGFKKRTVAGLC | < -0.25 |
| SALNPDATSLASRGRPYTRP | < -0.25 |
| SALSWSKFASTAAVRLNYID | < -0.25 |
| SALVCVNLDMRHKLASRTFR | -0.246 |
| SANVQAILTGRLRTASH | < -0.25 |
| SAPAEHLGPLKAVFYRVPWQ | < -0.25 |
| SAQVR | < -0.25 |
| SAQWYRH | < -0.25 |
| SARIRAVL | < -0.25 |
| SARLCTDSTTNLSFPRRIDG | < -0.25 |
| SASAFHMGGG | < -0.25 |
| SASHSYLLYFSLMFLERSDR | < -0.253 |
| SASNLVENIGVLFGIDNRFG | < -0.25 |
| SASRAWVTILTFEVKSWGHG | < -0.25 |
| SASRILLHGATGRQEDTTLR | < -0.25 |
| SATCMKSAKRAHVCL | < -0.25 |
| SATDRNDSRLLRWHFLIRRL | < -0.25 |
| SATQSGPRVGRLPWMTRPSN | < -0.25 |
| SATRKVEHIAR | < -0.25 |
| SAVFRLSRDVQSVR | < -0.25 |

Copied from the listing (4 entries):

| Substance | growth estimate |
| --- | --- |
| SARIRAVL | < -0.25 |
| SARLCTDSTTNLSFPRRIDG | < -0.25 |
| SASAFHMGGG | < -0.25 |
| SASHSYLLYFSLMFLERSDR | < -0.253 |

Remaining list, next part

| Substance | growth estimate |
| --- | --- |
| SAVLLNMVM | < -0.25 |
| SAVNGNARGRPMAYSRWVRG | < -0.25 |
| SAVRLIF | < -0.25 |
| SAWIFARVNTIESWLSVQPF | < -0.25 |
| SAYALPFHAPGGLS | < -0.25 |
| SCAHGFKW | < -0.25 |
| SCANRALDK | < -0.25 |
| SCASVWCPRE | < -0.25 |
| SCCLCWAIPLGGRLLGSIAP | < -0.25 |
| SCCLKVMCWIPGNWDKYGYS | < -0.25 |
| SCCRGLSGFC | < -0.25 |
| SCCVAQEITDRQPPIVGIVV | < -0.25 |
| SCERVMRRGTQLSSLWKCTA | < -0.25 |
| SCGGVN | < -0.25 |
| SCGSFKQGFPLRIPRPLLKL | < -0.25 |
| SCGSYSCRRPTTCQRCCSEP | -0.246 |
| SCGTHEP | < -0.25 |
| SCGTRRAACIVMVSVGWYTQ | < -0.25 |
| SCIVGQASDRVCALITSMSC | < -0.25 |
| SCKLALAAAGHVPRFYLNPD | -0.25 |
| SCLCRAGPLGMESLTCSASL | < -0.25 |
| SCLFGLLDVHEGFPPESKSV | < -0.25 |
| SCMASYYSP | < -0.25 |
| SCMDYDSPRYTFSPKSGTR | < -0.25 |
| SCNIRVERRCYGEWQSEICL | < -0.25 |

| Substance | growth estimate |
| --- | --- |
| SCNW | < -0.25 |
| SCPARTRIIDGWVRYLCPTP | < -0.25 |
| SCPQRFKLVLPCVATRIDVS | < -0.25 |
| SCPS | < -0.25 |
| SCRANKASQIRQWRLVAQYS | < -0.25 |
| SCRFRSEDIT | < -0.25 |
| SCRGSV | < -0.25 |
| SCRTGNLRQRIYEQCSWTGP | < -0.25 |
| SCRVSTHPLHGSLYIGGTVH | < -0.25 |
| SCRWKISGLSDRGATPCLIM | < -0.25 |
| SCSCDRAFSTFELAPHNAFI | < -0.25 |
| SCTDCTQSPSSDMLGTMPCH | < -0.25 |
| SCTISLF | < -0.25 |
| SCVHRRSTQLTHWKLWSGAM | < -0.25 |
| SCYLFDCRSY | < -0.25 |
| SCYTSHLAGLGA | -0.203 |
| SDACTSVRASRKPM | < -0.25 |
| SDADQADSCSGTLHVDTPSL | < -0.25 |
| SDAMQHRK | < -0.25 |
| SDAPS | < -0.25 |
| SDCFASSESSFVAELFSYTL | < -0.25 |
| SDCFVYIGCPLMNSGHGSLT | < -0.25 |
| SDDLSVVYF | < -0.25 |
| SDEDRLYRSA | < -0.25 |
| SDEGQ | < -0.25 |

| Substance | growth estimate |
| --- | --- |
| SDETETPRSNNC | < -0.25 |
| SDGQPAA | < -0.25 |
| SDGRTQRRPDNSSLGLHE | < -0.25 |
| SDGTHMSRYPVSDKEISGYQ | < -0.25 |
| SDITYQNH | < -0.25 |
| SDLGGSLVSDY | < -0.25 |
| SDLPCNPGIRRSGINHGHFR | < -0.25 |
| SDPIS | -0.219 |
| SDPNETDDVGTPHRSSET | < -0.25 |
| SDQMLRWKVSKNGSVRPNSG | < -0.25 |
| SDQVVRVRTVELVRVHMIRS | < -0.25 |
| SDRGSGEIFHVRQREVCRKD | < -0.25 |
| SDRLPYCGVVPVNVTTRIQG | -0.226 |
| SDS | -0.242 |
| SDSAARCQNMTLSWRPSGSA | < -0.25 |
| SDSFVGLGQ | < -0.25 |
| SDSGLAKATLFVPTPTNREV | < -0.25 |
| SDSPRICYVRKTMYPGA | < -0.25 |
| SDSTSGAVSLRYGISFVQH | < -0.25 |
| SDSVV | < -0.25 |
| SDTSLHELSDLHRRFITIT | < -0.25 |
| SDVLGGKTPVLSDSFLLMAG | < -0.25 |
